No constants are given. Whether binding was seen depends on the method and setting. In cells and extracts the contact can be indirect. Some binding calls cover weakened binding; strength is not graded here.
molecular target: T1, Interferon regulatory factor 1 (human (endogenous in MV4-11 and Kasumi-1)) (UniProt P10914); assay: co-IP; IRF1 antibody and MAg25K/Protein A/G magnetic beads added to cell lysates, overnight at 4 C, washed, eluted, Western blot; MV4-11 and Kasumi-1 cells
T1 sequence: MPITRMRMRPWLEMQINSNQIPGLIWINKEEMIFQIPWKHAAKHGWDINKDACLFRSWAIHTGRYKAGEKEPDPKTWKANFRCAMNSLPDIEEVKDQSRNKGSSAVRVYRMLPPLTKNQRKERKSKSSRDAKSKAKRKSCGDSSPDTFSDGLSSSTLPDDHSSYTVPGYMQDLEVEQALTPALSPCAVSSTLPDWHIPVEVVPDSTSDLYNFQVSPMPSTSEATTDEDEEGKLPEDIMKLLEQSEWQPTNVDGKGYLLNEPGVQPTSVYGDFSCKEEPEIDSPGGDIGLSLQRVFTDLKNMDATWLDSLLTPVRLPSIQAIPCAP

Chains of the proteins cited; added tags and fusions are not shown.
UniProt P32519: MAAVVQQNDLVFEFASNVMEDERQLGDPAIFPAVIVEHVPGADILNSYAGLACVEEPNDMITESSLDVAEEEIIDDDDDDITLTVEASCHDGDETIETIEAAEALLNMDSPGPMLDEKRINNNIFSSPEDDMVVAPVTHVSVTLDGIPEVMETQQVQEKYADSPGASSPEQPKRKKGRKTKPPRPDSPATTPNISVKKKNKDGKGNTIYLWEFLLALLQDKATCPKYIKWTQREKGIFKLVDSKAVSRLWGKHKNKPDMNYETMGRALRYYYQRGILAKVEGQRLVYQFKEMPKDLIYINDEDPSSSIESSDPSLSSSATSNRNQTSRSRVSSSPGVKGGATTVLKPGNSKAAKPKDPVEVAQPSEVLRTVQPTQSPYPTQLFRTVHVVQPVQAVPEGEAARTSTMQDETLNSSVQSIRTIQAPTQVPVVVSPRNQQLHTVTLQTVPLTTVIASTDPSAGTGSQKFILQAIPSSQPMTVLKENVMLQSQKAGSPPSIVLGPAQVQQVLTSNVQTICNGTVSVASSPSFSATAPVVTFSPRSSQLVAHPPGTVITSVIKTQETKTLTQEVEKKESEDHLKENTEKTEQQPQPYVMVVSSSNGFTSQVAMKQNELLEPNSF
UniProt P41212: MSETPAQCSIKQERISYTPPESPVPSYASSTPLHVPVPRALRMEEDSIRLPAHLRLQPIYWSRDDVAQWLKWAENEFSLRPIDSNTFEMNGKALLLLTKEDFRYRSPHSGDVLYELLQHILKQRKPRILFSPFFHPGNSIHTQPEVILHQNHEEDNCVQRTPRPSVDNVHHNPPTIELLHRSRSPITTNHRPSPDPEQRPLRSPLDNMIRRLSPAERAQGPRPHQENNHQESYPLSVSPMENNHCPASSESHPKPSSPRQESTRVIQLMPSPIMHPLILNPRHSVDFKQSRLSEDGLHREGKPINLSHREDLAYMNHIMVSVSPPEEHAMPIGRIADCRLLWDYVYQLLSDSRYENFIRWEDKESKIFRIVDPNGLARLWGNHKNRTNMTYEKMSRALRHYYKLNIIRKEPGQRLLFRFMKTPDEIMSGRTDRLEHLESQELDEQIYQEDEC
UniProt Q14814: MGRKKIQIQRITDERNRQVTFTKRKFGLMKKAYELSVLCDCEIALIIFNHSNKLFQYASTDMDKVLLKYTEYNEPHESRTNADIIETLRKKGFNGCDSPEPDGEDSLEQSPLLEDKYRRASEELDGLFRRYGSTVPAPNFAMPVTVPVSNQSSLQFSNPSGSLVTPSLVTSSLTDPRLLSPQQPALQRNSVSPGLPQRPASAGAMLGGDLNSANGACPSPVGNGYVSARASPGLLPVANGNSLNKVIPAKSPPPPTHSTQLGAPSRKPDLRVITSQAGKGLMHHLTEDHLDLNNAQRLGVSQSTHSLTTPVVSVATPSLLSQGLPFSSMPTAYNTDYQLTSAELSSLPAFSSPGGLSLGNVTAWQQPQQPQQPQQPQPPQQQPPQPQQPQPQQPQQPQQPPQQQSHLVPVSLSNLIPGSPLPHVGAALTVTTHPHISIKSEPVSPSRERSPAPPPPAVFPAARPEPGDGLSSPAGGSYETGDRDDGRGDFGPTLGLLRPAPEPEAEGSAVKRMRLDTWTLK
UniProt Q13950: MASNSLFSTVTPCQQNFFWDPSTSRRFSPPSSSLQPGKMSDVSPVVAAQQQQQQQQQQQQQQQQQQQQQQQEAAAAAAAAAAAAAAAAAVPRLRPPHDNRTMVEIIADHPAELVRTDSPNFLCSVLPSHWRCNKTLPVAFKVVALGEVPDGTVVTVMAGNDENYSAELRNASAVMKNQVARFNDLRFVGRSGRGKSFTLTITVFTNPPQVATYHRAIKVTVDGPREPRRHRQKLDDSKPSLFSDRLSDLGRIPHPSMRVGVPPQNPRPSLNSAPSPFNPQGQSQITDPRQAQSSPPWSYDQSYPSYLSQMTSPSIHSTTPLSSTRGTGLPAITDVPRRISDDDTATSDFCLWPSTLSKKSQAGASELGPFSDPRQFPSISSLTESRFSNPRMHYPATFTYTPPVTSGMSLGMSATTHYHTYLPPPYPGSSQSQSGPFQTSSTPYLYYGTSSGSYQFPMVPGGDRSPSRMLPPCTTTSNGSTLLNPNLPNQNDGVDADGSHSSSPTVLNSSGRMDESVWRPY

binding, binds:
ELF1 (from UniProt P32519 1-619), ETV6 (from UniProt P41212 1-452), MEF2D (from UniProt Q14814 1-521), RUNX2 (from UniProt Q13950 1-521)

From article PMC11871635
